Measured values from publication PMC4503461.
Results are given in words; binding and its absence hold for the method and conditions named. Binding seen in cells or lysates may run through a third protein. Some entries that bind do so weakly or less than the wild type.

Sequences of proteins named here, by UniProt entry; tags and fusion partners are left off.
UniProt Q96EB6: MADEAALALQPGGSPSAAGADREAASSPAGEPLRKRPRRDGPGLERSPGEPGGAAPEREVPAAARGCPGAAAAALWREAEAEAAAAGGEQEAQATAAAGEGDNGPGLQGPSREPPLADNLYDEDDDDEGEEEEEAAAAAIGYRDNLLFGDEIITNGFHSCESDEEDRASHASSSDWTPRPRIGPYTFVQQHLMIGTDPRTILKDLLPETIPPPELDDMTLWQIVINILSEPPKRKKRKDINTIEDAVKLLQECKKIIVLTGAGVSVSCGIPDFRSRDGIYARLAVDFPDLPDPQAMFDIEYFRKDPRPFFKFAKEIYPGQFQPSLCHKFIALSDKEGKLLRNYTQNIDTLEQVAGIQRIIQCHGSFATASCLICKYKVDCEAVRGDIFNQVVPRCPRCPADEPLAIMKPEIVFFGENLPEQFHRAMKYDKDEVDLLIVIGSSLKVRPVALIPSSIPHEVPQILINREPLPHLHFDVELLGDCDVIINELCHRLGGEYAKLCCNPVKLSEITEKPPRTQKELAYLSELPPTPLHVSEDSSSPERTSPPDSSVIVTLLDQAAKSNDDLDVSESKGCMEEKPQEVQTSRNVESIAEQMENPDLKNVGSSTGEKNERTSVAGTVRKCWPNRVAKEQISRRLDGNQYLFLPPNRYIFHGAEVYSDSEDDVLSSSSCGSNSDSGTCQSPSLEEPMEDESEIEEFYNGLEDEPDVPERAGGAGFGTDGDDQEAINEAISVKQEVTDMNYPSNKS
UniProt P21281: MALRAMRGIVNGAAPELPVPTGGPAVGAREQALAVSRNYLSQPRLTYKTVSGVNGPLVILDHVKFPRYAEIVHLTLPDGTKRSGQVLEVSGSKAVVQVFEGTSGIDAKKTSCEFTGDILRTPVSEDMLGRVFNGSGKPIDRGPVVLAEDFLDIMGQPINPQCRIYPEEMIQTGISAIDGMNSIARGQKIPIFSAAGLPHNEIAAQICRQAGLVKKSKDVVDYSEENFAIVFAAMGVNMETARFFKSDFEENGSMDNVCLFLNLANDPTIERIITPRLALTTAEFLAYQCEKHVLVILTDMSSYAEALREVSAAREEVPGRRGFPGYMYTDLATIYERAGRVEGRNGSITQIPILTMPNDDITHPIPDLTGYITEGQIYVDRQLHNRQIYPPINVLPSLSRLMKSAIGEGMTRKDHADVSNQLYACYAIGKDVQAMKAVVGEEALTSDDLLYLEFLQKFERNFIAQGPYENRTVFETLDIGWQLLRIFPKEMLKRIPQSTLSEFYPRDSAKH

Biological target: Flag-tagged full-length SIRT1 (UniProt Q96EB6)
Assay: co-IP; Flag-SIRT1 overexpressed in HEK293 cells (control: pECE empty vector); whole-cell lysate incubated with anti-Flag M2 agarose overnight at 4°C in NETN buffer (50 mM Tris-HCl pH 8.0, 100 mM NaCl, 1 mM EDTA, 0.5% NP40); endogenous ATP6V1B2 detected by western blot

In the case of “ATP6V1B2, B subunit of the vacuolar (H+)-ATPase (from UniProt P21281 1-511)”, the binding is reported as “binds”.
